Source: the supplement of paper PMC3334620
In all, about 33,000 sequences were measured (“E-score (-0.5 to 0.5)”: median about -0.0014, highest 2% from about 0.25 on). The list shows a part of the results.

The sequences below were run against T1, Cad1 (UniProt P24813) (assay: PBM E-score (8-mer binding enrichment) (E-score (-0.5 to 0.5)); higher = stronger / more preferred TF binding). Conditions: protein concentration: 100 nM; construct: GST-full length.
T1 sequence: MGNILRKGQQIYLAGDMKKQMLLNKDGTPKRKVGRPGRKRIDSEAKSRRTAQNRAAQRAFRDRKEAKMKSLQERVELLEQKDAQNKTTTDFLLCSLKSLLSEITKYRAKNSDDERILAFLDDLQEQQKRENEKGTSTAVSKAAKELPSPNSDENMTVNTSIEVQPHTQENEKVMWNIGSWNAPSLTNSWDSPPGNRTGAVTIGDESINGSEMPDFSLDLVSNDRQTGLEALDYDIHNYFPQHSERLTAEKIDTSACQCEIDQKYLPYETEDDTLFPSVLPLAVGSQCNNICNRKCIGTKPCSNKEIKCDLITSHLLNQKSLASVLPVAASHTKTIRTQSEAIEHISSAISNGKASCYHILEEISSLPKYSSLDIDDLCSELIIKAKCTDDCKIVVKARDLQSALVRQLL
Outline: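 Full-length yeast transcription factors or their DNA-binding domains, GST-tagged and expressed with PURExpress, were applied at about 100-200 nM to universal all-10-mer Agilent arrays. These arrays had been made double-stranded by primer extension on fresh or once-stripped slides. Detection used fluorescent anti-GST, normalisation used masliner, and E-scores for ungapped eight-base words pooled with reverse complements came from the Universal PBM Analysis Suite.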
In the case of CCTGTTGA, the “PBM E-score” value is reported as 0.0889. With AGAGTACA the “PBM E-score” value was -0.0606. For AGACACCA, the “PBM E-score” value was 0.0437. For GAGCTATA, the “PBM E-score” value was -0.189. With AGTTATCA the “PBM E-score” value was 0.0481. With CGCCTCCG the “PBM E-score” value was -0.276. For ATTCTCTG, the “PBM E-score” value was -0.0244. In the case of ACCCGAGC, the “PBM E-score” value is reported as -0.028. With TGTATCAA the “PBM E-score” value was 0.153. With AGAACTAT the “PBM E-score” value was 0.0661. In the case of GGTGTCAC, the “PBM E-score” value is reported as 0.115. With ATACCGGG the “PBM E-score” value was 0.107. For CTACTGAC, the “PBM E-score” value was -0.00067. With AGTGCTGG the “PBM E-score” value was 0.0389. In the case of GCCAGACA, the “PBM E-score” value is reported as 0.104. With CGGGAAGA the “PBM E-score” value was 0.0795. ATGTTATC was tested, and the “PBM E-score” value was 0.144. In the case of ACAAACTG, the “PBM E-score” value is reported as -0.0705. With AGGCGAGG the “PBM E-score” value was -0.157. In the case of AGCTTACG, the “PBM E-score” value is reported as 0.248. With GAGACAGC the “PBM E-score” value was 0.0272. In the case of CCCACCTC, the “PBM E-score” value is reported as -0.154. In the case of GACCCTCA, the “PBM E-score” value is reported as -0.28. In the case of GTATAAGA, the “PBM E-score” value is reported as -0.0708. With GCCGCTGA the “PBM E-score” value was 0.103. AATGCTGA was tested, and the “PBM E-score” value was 0.137. TGCCCGCA was tested, and the “PBM E-score” value was 0.067. In the case of CGAAGTCC, the “PBM E-score” value is reported as -0.116. ATATACGC was tested, and the “PBM E-score” value was -0.0916. With TCCACAGA the “PBM E-score” value was 0.11. In the case of GAACTCCA, the “PBM E-score” value is reported as 0.102. For CGAACTGA, the “PBM E-score” value was -0.17. CGGAGACG was tested, and the “PBM E-score” value was 0.137. With CGCCACTA the “PBM E-score” value was -0.0319. In the case of ATCGTGCG, the “PBM E-score” value is reported as 0.325. CGCCTAAG was tested, and the “PBM E-score” value was -0.154. With CCAAGTCG the “PBM E-score” value was 0.0392. In the case of AATTATGA, the “PBM E-score” value is reported as 0.297. GCAGATAA was tested, and the “PBM E-score” value was -0.0236. AGATCCAC was tested, and the “PBM E-score” value was -0.0172. For AATGTGAC, the “PBM E-score” value was 0.221. With GAGCGGAA the “PBM E-score” value was 0.174. With CACGAGGG the “PBM E-score” value was -0.227. With AGGACTAA the “PBM E-score” value was 0.0814. AAAGTCAT was tested, and the “PBM E-score” value was 0.074. For AGCCATTG, the “PBM E-score” value was 0.102. In the case of AGCAAGGA, the “PBM E-score” value is reported as -0.22. With ACAGGTAG the “PBM E-score” value was -0.119. In the case of CACCCGTC, the “PBM E-score” value is reported as -0.0451. In the case of CAAGTGGG, the “PBM E-score” value is reported as -0.0476. With AAACGCGC the “PBM E-score” value was 0.00737. With CGTGTGCA the “PBM E-score” value was 0.038. With AACAACAA the “PBM E-score” value was 0.058. With CAACGGCC the “PBM E-score” value was -0.00472. AAGTGTAA was tested, and the “PBM E-score” value was -0.0374. In the case of ACTCACTG, the “PBM E-score” value is reported as 0.0609. In the case of ATCTGCTC, the “PBM E-score” value is reported as 0.0186. AAACACAT was tested, and the “PBM E-score” value was 0.111. AGGGCCCT was tested, and the “PBM E-score” value was -0.115. With TACTGCTA the “PBM E-score” value was -0.0546. With AAATGACT the “PBM E-score” value was 0.0638. With GCAGGTTA the “PBM E-score” value was -0.217. In the case of ATCAGACG, the “PBM E-score” value is reported as 0.0655. With ACTGCGGG the “PBM E-score” value was -0.0136. CCCAATAA was tested, and the “PBM E-score” value was -0.0013. For GCGTTGAC, the “PBM E-score” value was 0.112. With ACGAGGGG the “PBM E-score” value was -0.358. For TGGAGCAA, the “PBM E-score” value was 0.0665. For AGAATAGC, the “PBM E-score” value was 0.159. ATCCTCGG was tested, and the “PBM E-score” value was 0.122. For AGTCGTAC, the “PBM E-score” value was -0.228. In the case of CCCCTCGA, the “PBM E-score” value is reported as -0.113. For CAATGGGC, the “PBM E-score” value was -0.139. CCCAGGTA was tested, and the “PBM E-score” value was -0.227. With AGAGAGTA the “PBM E-score” value was -0.125. In the case of TCTGGAAA, the “PBM E-score” value is reported as 0.00954. GCTTATAC was tested, and the “PBM E-score” value was 0.0132. With AAGGGATG the “PBM E-score” value was -0.161. For TCCACCGA, the “PBM E-score” value was -0.0875. With CGCTGCTA the “PBM E-score” value was -0.11. With ACGTCCAA the “PBM E-score” value was -0.0166. With GTTGGTAA the “PBM E-score” value was 0.19. With GAGGCAAC the “PBM E-score” value was 0.0448. In the case of ACGATTCG, the “PBM E-score” value is reported as 0.111. For GGCTTAAC, the “PBM E-score” value was 0.0615. In the case of ATGAGCGG, the “PBM E-score” value is reported as -0.0151. In the case of CGTGGAGA, the “PBM E-score” value is reported as -0.0377. With GATCTCAC the “PBM E-score” value was -0.0178. CCGACTAA was tested, and the “PBM E-score” value was 0.0547. TCTCGTCA was tested, and the “PBM E-score” value was -0.00087. For ATCTATGC, the “PBM E-score” value was 0.0253. AAGATCAA was tested, and the “PBM E-score” value was -0.0288. For GACACTAA, the “PBM E-score” value was 0.0765. In the case of CTGCATGC, the “PBM E-score” value is reported as 0.105. For AGGGTCTC, the “PBM E-score” value was -0.138. For CTCCGCGC, the “PBM E-score” value was -0.0989. In the case of AATAGCCA, the “PBM E-score” value is reported as 0.0741. GTTGCAAA was tested, and the “PBM E-score” value was 0.187. With AATTAATC the “PBM E-score” value was 0.227. For AGTGCCTC, the “PBM E-score” value was -0.212. With AAACGCAC the “PBM E-score” value was 0.0177. With GAGAACTC the “PBM E-score” value was -0.157. In the case of AACAGCCC, the “PBM E-score” value is reported as -0.00726. For ATCGTACG, the “PBM E-score” value was 0.121. In the case of CGCGATAG, the “PBM E-score” value is reported as 0.112. In the case of CAGACGTA, the “PBM E-score” value is reported as 0.0446. For GACCAAGA, the “PBM E-score” value was -0.0292. In the case of TTCACAAA, the “PBM E-score” value is reported as 0.085. In the case of CAGGGATA, the “PBM E-score” value is reported as -0.0646. With CGCACGTA the “PBM E-score” value was -0.0721. ACGCCCCC was tested, and the “PBM E-score” value was -0.407. For GCTCATCC, the “PBM E-score” value was -0.0355. For CCCAGCTA, the “PBM E-score” value was -0.16. With AAACCGCC the “PBM E-score” value was -0.0149. GAATATTA was tested, and the “PBM E-score” value was 0.227. For GGGCGTAC, the “PBM E-score” value was -0.0904. For TTACCTAA, the “PBM E-score” value was 0.334. In the case of GTTGAAGA, the “PBM E-score” value is reported as 0.0205. In the case of ACCATTTA, the “PBM E-score” value is reported as 0.0626. In the case of CTGCGGTA, the “PBM E-score” value is reported as 0.0345. CCAATGCG was tested, and the “PBM E-score” value was -0.0336. ACCATAAG was tested, and the “PBM E-score” value was -0.183. In the case of ATATCTGA, the “PBM E-score” value is reported as 0.124. AGACGACA was tested, and the “PBM E-score” value was -0.0566. In the case of CATTCCCA, the “PBM E-score” value is reported as -0.028. ATGCCGCA was tested, and the “PBM E-score” value was 0.0493. With ACCTGGAA the “PBM E-score” value was 0.187. In the case of GAGATTGA, the “PBM E-score” value is reported as 0.00123. For GAAGAGGA, the “PBM E-score” value was -0.286. In the case of ACTCTTCT, the “PBM E-score” value is reported as -0.227. For CTAGCTCC, the “PBM E-score” value was -0.159. With AGGTCCGA the “PBM E-score” value was 0.127. For AACAATGA, the “PBM E-score” value was 0.13. For CCCTCCCC, the “PBM E-score” value was -0.00723. For ATTCTAAG, the “PBM E-score” value was 0.0377. For AATGTCTC, the “PBM E-score” value was -0.0702. For CCACCCCG, the “PBM E-score” value was -0.119. In the case of CCTCAAAC, the “PBM E-score” value is reported as -0.128. With ACCGCTGG the “PBM E-score” value was -0.213. For CGCCCAAC, the “PBM E-score” value was 0.0447. For CAATGCGA, the “PBM E-score” value was -0.00381. For AGGGACAG, the “PBM E-score” value was -0.163. For TCTCAACA, the “PBM E-score” value was 0.0862. In the case of GAACTCGC, the “PBM E-score” value is reported as 0.228. AGAGTAAT was tested, and the “PBM E-score” value was 0.104. In the case of TCATTGCA, the “PBM E-score” value is reported as 0.0456. AATTAGCG was tested, and the “PBM E-score” value was 0.207. AGAACGTA was tested, and the “PBM E-score” value was 0.00725. For ACTTCCAG, the “PBM E-score” value was -0.224. For AGTAGCCG, the “PBM E-score” value was 0.00943. For CCCGCGCC, the “PBM E-score” value was -0.118. AGTGATAG was tested, and the “PBM E-score” value was -0.0273. In the case of TGCACGAA, the “PBM E-score” value is reported as 0.15. For TCAAAAAA, the “PBM E-score” value was -0.00687. TCAGTGGA was tested, and the “PBM E-score” value was -0.149. CCAGCCGG was tested, and the “PBM E-score” value was -0.0587. For ACAAACGA, the “PBM E-score” value was 0.0882. For ATCTGCAT, the “PBM E-score” value was 0.174. In the case of ACTGTTAT, the “PBM E-score” value is reported as 0.156. With AAGTAACT the “PBM E-score” value was -0.0701. For CGAAATCA, the “PBM E-score” value was 0.306. CGAGAAGA was tested, and the “PBM E-score” value was -0.081. In the case of ATCGACCG, the “PBM E-score” value is reported as -0.0243. CGAGTTGC was tested, and the “PBM E-score” value was 0.203. With GCCTCACA the “PBM E-score” value was 0.0301. With ATCGCGAA the “PBM E-score” value was 0.243. In the case of CTGGGCGA, the “PBM E-score” value is reported as -0.176. With AAGGCGAT the “PBM E-score” value was -0.0261. With GATAATCA the “PBM E-score” value was 0.169. With ATGTGAAG the “PBM E-score” value was 0.0915. With AATTGAAA the “PBM E-score” value was 0.133. In the case of TGTAGTAA, the “PBM E-score” value is reported as 0.145.
